Some entries share one result that the patent states for a list of compounds. For at least one compound, name, drawing or mass did not settle the structure.
What follows are compounds tested on HeLa cancer cells (assay: MTT cytotoxicity assay in HeLa cancer cells). Settings: 72 hours, mean of three independent experiments.
Format: cell-based
Experimental: All test compounds were dissolved in DMSO (Dimethyl sulfoxide) at final concentrations of 50 mmol/L and stored at −20° C. before use. Cytotoxicity was assessed using the 3-(4, 5-dimethylthiazol-2-yl)-2, 5-diphenyltetrazolium bromide (MTT) (5.0 mg/ml) assay. Briefly, 4×10^3 cells were seeded per well in 96-well plates before drug treatment. After overnight culture, the cells were then exposed to different concentrations of test compounds (0.039-100 μmol/L) for 72 hours. Cells without drug treatment were used as control. Subsequently, MTT (10 μL) was added to each well and incubated at 37° C. for 4 hours followed by the addition of 100 μL solubilization buffer (10% SDS (Sodium dodecyl sulfate) in 0.01 mol/L HCl) and overnight incubation. A570 nm was determined from each well on the next day. The percentage of cell viability was calculated using the following formula: Cell viability (%)=Atreated/Acontrol×100. Data were obtained from triplication independent experiments.
FIG. 1 is a graph 100 showing cell viability of HeLa cells treated with dauricine, N-desmethyldauricine, and compounds 2a-4b. HeLa cancer cells in 96 well-plates were treated with 0 to 20 μM of dauricine (Dau), N-desmethyldauricine (NDau) and dauricine derivatives (2a-4b) for 72 hours. Cell cytotoxicity was then assessed using the 3-(4, 5-dimethylthiazol-2-yl)-2, 5-diphenyltetrazolium bromide (MTT) (5.0 mg/ml) assay. The IC50 values shown in FIG. 1 are mean values of three independent experiments.

| Compound | IC50 |
| --- | --- |
| COc1cc2c(cc1OC)C(Cc1ccc(Oc3cc(CC4c5cc(OC)c(OC)cc5CCN4C)ccc3OC(=O)N(C)C)cc1)N(C)CC2 (stereo not shown) [Compound 2c] | > 20 µM |
| CCN(C)C(=O)Oc1ccc(CC2c3cc(OC)c(OC)cc3CCN2C)cc1Oc1ccc(CC2c3cc(OC)c(OC)cc3CCN2C)cc1 (stereo not shown) [Compound 2d] | > 20 µM |
| CCN(CC)C(=O)Oc1ccc(CC2c3cc(OC)c(OC)cc3CCN2C)cc1Oc1ccc(CC2c3cc(OC)c(OC)cc3CCN2C)cc1 (stereo not shown) [Compound 2e] | > 20 µM |
| COc1cc2c(cc1OC)C(Cc1ccc(Oc3cc(CC4c5cc(OC)c(OC)cc5CCN4C)ccc3OC(=O)N(C)OC)cc1)N(C)CC2 (stereo not shown) [Compound 2f] | > 20 µM |
| COc1cc2c(cc1OC)C(Cc1ccc(Oc3cc(CC4c5cc(OC)c(OC)cc5CCN4C)ccc3OC(=O)N3CCOCC3)cc1)N(C)CC2 (stereo not shown) [Compound 2g] | > 20 µM |
| COc1cc2c(cc1OC)C(Cc1ccc(Oc3cc(CC4c5cc(OC)c(OC)cc5CCN4C)ccc3OC(=O)c3ccco3)cc1)N(C)CC2 (stereo not shown) [Compound 3b] | > 20 µM |
| COc1cc2c(cc1OC)C(Cc1ccc(Oc3cc(CC4c5cc(OC)c(OC)cc5CCN4C)ccc3OS(C)(=O)=O)cc1)N(C)CC2 (stereo not shown) [Compound 4b] | > 20 µM |
